{"source": "patent US20180298024A1", "about": "“CORTISTATIN ANALOGS AND USES THEREOF” (President and Fellows of Harvard College, priority 2015, published 2018)", "origin": "cited, not measured here", "system": "human umbilical vein endothelial cells (HUVECs)", "settings": "read-out: IC50, anti-proliferative activity against HUVECs; cited from earlier work", "note": "pIC50: −log10 of the molar value. At least one compound was matched to its structure with a doubt left.", "data": [{"smiles": "CN(C)[C@H]1C[C@@]23CC[C@@]4(O2)C(=CC[C@]2(C)[C@@H](c5ccc6ccncc6c5)CC[C@H]24)C=C3[C@@H](O)[C@@H]1O", "note": "[Cortistatin A]", "values": [{"measurement": "pIC50", "value": 8.74}]}]}
